Source: PubChem BioAssay AID504834 (National Center for Advancing Translational Sciences (NCATS), 2011)
About 22,000 (6.9%) of roughly 320,000 compounds were called active. Inconclusive means that the source gave no clear call. Such entries were picked first, then a sample of the others. Calls follow the shape of the dose curve; as a rule, active = well fitted inhibition curve with a large enough effect; inconclusive = small, poorly fitted or top-dose-only effect, or another doubt; inactive = no such curve, though single readings can be large or run the other way. Where the call is inconclusive, the potency comes from a doubtful curve fit.

Assay: Primary qHTS for delayed death inhibitors of the malarial parasite plastid, 96 hour incubation
Settings: P. falciparum luciferase reporter growth; series mostly up to 28.7 µM
In short: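 Plates of compound plus infected erythrocytes (2% hematocrit, 0.05% parasitemia final) incubate 96 hours, 37 C, 5% CO2. Detection reagent added; reduced luminescence from the parasites' luciferase reporter flags inhibition.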
Potency is read from the fitted curve at half-maximal effect.

Row | SMILES | Potency
1 | Cc1cc(NC(=O)c2ccc([N+](=O)[O-])cc2Cl)ccc1NC(=O)c1ccco1 | inconclusive: 11.7 µM [inhibitor, partial curve, poor fit]
2 | Nc1nc(NCCOCCO)nc(N2CCCCCC2)c1[N+](=O)[O-] | inactive
3 | COc1ccc(Cl)cc1NC(=O)C(C)N1CCN(c2ccccn2)CC1 (stereo not given) | inactive
4 | CS(=O)(=O)c1ccc(C(=O)OCc2nnc(-c3ccccc3)o2)cc1[N+](=O)[O-] | inactive
5 | COc1ccccc1NC(=O)c1ccc(NC(=O)CSc2nnnn2C)cc1 | inactive
6 | C=CCc1cccc2cc(C(=O)NC3CCCCC3)c(=O)oc12 | inactive
7 | CCOC(=O)c1nnn(-c2nonc2N)c1CN(CC)CC | inconclusive: 4.15 µM [inhibitor, partial curve, poor fit]
8 | CCOc1ccccc1NC(=O)C1=C(C)NC(=O)NC1c1cccc(OC)c1OC (stereo not given) | inconclusive: 13.1 µM [inhibitor, single point]
9 | CCOc1ccc(CCNC(=O)CCNC(=O)c2ccccc2Cl)cc1OCC | inconclusive: 4.15 µM [inhibitor, single point]
10 | CCS(=O)(=O)c1nc(S(=O)(=O)c2ccc(C)cc2)c(N2CCCC(C)C2)s1 (stereo not given) | inconclusive: 14.7 µM [inhibitor, single point]
11 | CN1C(=O)C(C)(C)c2cc(S(=O)(=O)NCC3CCC(C(=O)NC4CCCCC4)CC3)ccc21 (stereo not given) | inconclusive: 18.5 µM [inhibitor, single point]
12 | Clc1cccc(CSc2ncn(-c3ccccc3)n2)c1 | inactive
13 | CCOC(=O)c1ccc(N2C(=O)CC(N(C)Cc3ccccc3)C2=O)cc1 (stereo not given) | active: 1.47 µM
14 | N#CCC(=O)Nc1ccc(C(=O)NCCC(c2ccccc2)c2ccccc2)cc1 | inconclusive: 13.1 µM [inhibitor, partial curve]
15 | CCC(=O)N1CCc2cc(S(=O)(=O)N(CC)c3cccc(C)c3)ccc21 | inconclusive: 0.0074 µM [inhibitor, full curve, poor fit]
16 | O=C1C2C(C(=O)N1/N=C/c1cc([N+](=O)[O-])ccc1O)C1C=CC2C12CC2 (stereo not given) | inconclusive: 4.15 µM [inhibitor, partial curve, poor fit]
17 | CCOc1ccc(CNC(=O)CCC(=O)n2ncc3ccc(Cl)cc32)cc1 | inconclusive: 20.8 µM [inhibitor, partial curve, poor fit]
18 | O=C(Cn1cnc2c(nnn2Cc2ccc(F)cc2)c1=O)N1CCCCC1 | inconclusive: 0.0828 µM [inhibitor, full curve, poor fit]
19 | CCCCN1CNC(=S)N(CCc2ccccc2)C1 | inconclusive: 18.5 µM [inhibitor, partial curve, poor fit]
20 | COC(=O)c1[nH]c(=O)c2ccccc2c1OCc1ccccc1 | inactive
21 | Cn1cc(CNC(=O)/C=C/c2ccc(Cl)cc2)cn1 | inactive
22 | Brc1ccccc1OCCCOc1cccc2cccnc12 | inconclusive: 18.5 µM [inhibitor, single point]
23 | Cc1ccc(-c2csc3ncn(CC(=O)N4CCOCC4)c(=O)c23)cc1C | inconclusive: 18.5 µM [inhibitor, single point]
24 | Cc1c(C(=O)C(=O)N2c3ccccc3CC2C)c2ccccc2n1C (stereo not given) | inconclusive: 14.7 µM [inhibitor, partial curve, poor fit]

In the list so far, three have an aryl methoxy group:
Row | SMILES | Potency
3 | COc1ccc(Cl)cc1NC(=O)C(C)N1CCN(c2ccccn2)CC1 (stereo not given) | inactive
5 | COc1ccccc1NC(=O)c1ccc(NC(=O)CSc2nnnn2C)cc1 | inactive
8 | CCOc1ccccc1NC(=O)C1=C(C)NC(=O)NC1c1cccc(OC)c1OC (stereo not given) | inconclusive: 13.1 µM [inhibitor, single point]

Further records follow.

Row | SMILES | Potency
25 | COC(=O)C1C(c2ccc(N(C)C)cc2)C(C(=O)OC)S(=O)(=O)CS1(=O)=O (stereo not given) | inactive
26 | CC(C)n1c(CN(C)Cc2ccccc2)nc2c1c(=O)n(C)c(=O)n2C | inconclusive: 8.28 µM [inhibitor, partial curve, poor fit]
27 | Cc1ccc(-c2cc(C(=O)Nc3ccc(S(=O)(=O)Nc4onc(C)c4C)cc3)c3ccccc3n2)cc1 | inconclusive: 11.7 µM [inhibitor, single point]
28 | CNc1cc(C(F)(F)F)nc(-c2ccccn2)n1 | inconclusive: 18.5 µM [inhibitor, single point]
29 | CC1=CC(C)C(/C=N/n2cnnc2)C(C)C1 (stereo not given) | inconclusive: 18.5 µM [inhibitor, single point]
30 | CCOC(=O)[C@H]1[C@H]2COc3ccc(C)cc3[C@@H]2N2C(=O)CN(Cc3ccc(OC)cc3)C(=O)[C@@]12C | inconclusive: 13.1 µM [inhibitor, single point]
31 | CCCCCSc1cc(OC)c(CCNC)cc1OC | inconclusive: 9.28 µM [inhibitor, single point]
32 | COc1cc(-c2cc(-c3ccccc3)nc(SCC(=O)Nc3nccs3)c2C#N)cc(OC)c1OC | inconclusive: 0.738 µM [inhibitor, full curve, poor fit]
33 | Clc1cccc(Nc2ncnc3c2cnn3-c2ccccc2)c1 | inconclusive: 16.5 µM [inhibitor, single point]
34 | CCCNC(=O)c1c(N)n(CC2CCCO2)c2nc3ccccc3nc12 (stereo not given) | inconclusive: 1.17 µM [inhibitor, full curve, poor fit]
35 | CSc1ccccc1NC(=O)COC(=O)CCc1ccccc1 | inactive
36 | CCc1cccc(C)c1NC(=S)N(CCN(C)C)C(C)c1ccco1 (stereo not given) | inconclusive: 11.7 µM [inhibitor, partial curve, poor fit]
37 | O=C(Cc1ccccc1)Nc1ccc(NC(=O)c2ccccc2)nc1 | inconclusive: 9.28 µM [inhibitor, partial curve, poor fit]
38 | CCOc1ccc(C)cc1S(=O)(=O)NC1CCCCCC1 | inactive
39 | CCN(CC)c1ccc(/C=N/NC(=O)c2nnn(-c3nonc3N)c2-c2ccc(C)cc2)cc1 | active: 5.86 µM
40 | COc1ccc(-n2c(Cc3cccn3C)nnc2SCC(=O)Nc2cccc(OC)c2)cc1 | inactive
41 | CCOC(=O)/C=C/C(=O)N1CCN(C(=O)/C=C/C(=O)OCC)CC1 | inconclusive: 10.4 µM [inhibitor, single point]
42 | COc1ccnc(N=CNOCc2cccc(C(F)(F)F)c2)c1C#N | active: 14.7 µM
43 | CCOc1cccc(/C=C/c2ccc3cccc(O)c3n2)c1OC | inconclusive: 18.5 µM [inhibitor, single point]
44 | COC(=O)c1c(C)oc(C)c1S(=O)(=O)N1CCCC1 | inactive
45 | CCCCCn1c(Sc2ccccc2)nc2c1c(=O)[nH]c(=O)n2C | inactive
46 | CCOC(=O)c1cnc2c(C#N)c(C)nn2c1-c1ccccc1 | inconclusive: 0.329 µM [inhibitor, full curve, poor fit]
47 | Cc1ccc(C)c(Nc2cc(C)nc3ncnn23)c1 | inconclusive: 18.5 µM [inhibitor, single point]
48 | CC(Oc1ccc(Cl)cc1Cl)c1nc(-c2ccc(NC(=O)c3ccco3)cc2)no1 (stereo not given) | active: 0.928 µM

Row | SMILES | Potency
49 | CC(=O)Nc1cc(N=Cc2ccc(O)cc2O)c(Cl)cc1Cl | inactive
50 | CC(c1ccccc1)C1CC(=O)N(c2cc(Cl)ccn2)C1=O (stereo not given) | inactive
51 | Cc1ccc(NC(=O)c2ccc3c(c2)CCN3S(C)(=O)=O)c(C)c1 | inactive
52 | COc1ccc(C(=O)N[C@H]2CCCCNC2=O)cc1OC1CCN(C(C)C)CC1 | inconclusive: 0.0928 µM [inhibitor, full curve, poor fit]
53 | Cc1cc(NC(=O)c2sccc2C)n(-c2nc3ccccc3[nH]2)n1 | inconclusive: 9.28 µM [inhibitor, partial curve, poor fit]
54 | CC(C)NC(C)C(=O)C12CC3CC(CC(C3)C1)C2 (stereo not given) | inconclusive: 10.4 µM [inhibitor, single point]
55 | CCN1CCN=C1Nc1ccccc1 | inactive
56 | CC(=O)Nc1ccc(NC(=O)c2cc(-c3ccccc3)nc3ccccc23)cc1 | inactive
57 | Cc1cc[n+](-c2[nH]c(=O)sc2/C=N/N=C(\[O-])CCn2c3ccccc3c3ccccc32)cc1 | inconclusive: 0.147 µM [inhibitor, full curve, poor fit]
58 | CCCc1cnc(N2CCN(C(=O)c3ccc(F)cc3)CC2)nc1 | inconclusive: 9.28 µM [inhibitor, partial curve]
59 | CC(=O)Oc1cccc(C)c1 | inactive
60 | Cc1nc(N2CCOCC2)nc(N2CCC(C)CC2)c1[N+](=O)[O-] | inconclusive: 8.28 µM [inhibitor, partial curve]
61 | c1ccc(CO/N=C(\c2ccc(C3CC3)nc2)C2CC2)cc1 | inconclusive: 14.7 µM [inhibitor, single point]
62 | O=C(Nc1cc(S(=O)(=O)N2CCOCC2)ccc1N1CCCC1)c1ccc2c(c1)S(=O)(=O)c1ccccc1C2=O | inconclusive: 8.28 µM [inhibitor, partial curve]
63 | Cc1nccn1CCCNCc1c(C(=O)N2CCCCCCC2)nc2ccc(Cl)cn12 | inconclusive: 18.5 µM [inhibitor, single point]
64 | Cc1cccnc1NC(=O)CNC(=O)C1CCCCC1 | inconclusive: 9.28 µM [inhibitor, partial curve, poor fit]
65 | O=C(N/C(=C\c1cccc([N+](=O)[O-])c1)C(=O)N1CCOCC1)c1ccc([N+](=O)[O-])cc1 | inactive
66 | COc1ccc(NC(=O)COc2ccccc2F)cc1S(=O)(=O)N1CCCCC1 | inconclusive: 13.1 µM [inhibitor, single point]
67 | Cc1ccccc1CNC(=O)C1CCCN(c2cnccn2)C1 (stereo not given) | inactive
68 | CC(C)Oc1cccc(-c2cc(C(=O)N3CCN(S(C)(=O)=O)CC3)c3ccccc3n2)c1 | inconclusive: 18.5 µM [inhibitor, single point]
69 | CC1CCN(C(=O)CSc2nncn2-c2ccccn2)CC1 | inconclusive: 14.7 µM [inhibitor, partial curve, poor fit]
70 | CCc1nnc(NC(=O)C2CC(=O)N(Cc3ccco3)C2)s1 (stereo not given) | inactive
